Results as given in PMC5100577.
These are yes or no findings as the source states them, for the method shown. In cells and extracts the contact can be indirect. Tags and fused reporters may be left off the sequences shown.

Biological target: T1, Nap1-9xmyc (yeast) (UniProt P25293)
T1 sequence: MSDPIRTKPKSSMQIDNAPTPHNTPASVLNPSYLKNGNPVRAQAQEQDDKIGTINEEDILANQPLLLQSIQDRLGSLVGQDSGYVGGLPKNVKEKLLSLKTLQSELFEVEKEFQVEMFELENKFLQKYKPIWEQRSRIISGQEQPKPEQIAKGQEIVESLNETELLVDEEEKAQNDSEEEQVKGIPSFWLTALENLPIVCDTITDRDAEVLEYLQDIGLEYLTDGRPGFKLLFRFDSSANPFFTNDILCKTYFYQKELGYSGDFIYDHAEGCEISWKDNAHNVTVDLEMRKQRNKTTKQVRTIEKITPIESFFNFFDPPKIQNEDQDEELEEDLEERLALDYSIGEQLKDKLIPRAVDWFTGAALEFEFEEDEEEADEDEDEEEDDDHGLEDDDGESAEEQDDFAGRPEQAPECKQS
Experiment: co-IP; soluble whole cell extract (chromatin pelleted) of Myc-tagged Spt16 or Nap1 yeast, wild-type or HBRΔ as only H2B; anti-myc agarose beads, 4°C overnight; 40 mM HEPES pH 7.5, 0.1% Tween-20, 150 mM NaCl, 10% glycerol; western blot for H2A, H2B, H2AZ, H3; also with nuclease treatment of the extract and in nap1Δ cells

- binding: no binding
Substance: yeast histone H3 (from UniProt P61830 1-136) (other; other documents disagree on this pair)
